The experiment is described as follows: IkB Signaling. The settings on record: ABC-DLBCL IkBa-CBG/CBR dual luciferase ratio (green luciferase fused to IkBa over red control in OCI-Ly3 lymphoma cells), 4 h. The method, boiled down:
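Curves were fitted separately to fusion (green), unfused (red) and ratio luminescence, then classed by r2, magnitude and activity. Cells: OCI-Ly3, 4 h compound plus doxycycline at 37C; 10 uM MG-132 defined full response.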

The mark [1] stands for this setting: measured here: control luc red channel unless noted.
[2] abbreviates: measured here: IkB-luc green channel.
Where [3] appears, read: measured here: control luc red channel.

Our source for the AC50 values is PubChem BioAssay AID445 (National Center for Advancing Translational Sciences (NCATS), 2006).

This is one part of the list. Further columns of the screen follow, without active or inactive calls. The list favours compounds with an active or inconclusive main result. Words in brackets tell the shape of the fitted curve; partial curves, single points and poor fits give uncertain potencies.

Consider `CCOC(=O)Cn1c(=O)n(CC2CCCO2)c2nc(-c3ccc(CC)cc3)nc(C(N)=O)c21` (configuration not stated), for which the AC50 under setting [1] was 10 µM [falling, partial curve].
Turning to `CC(=O)Nc1c(C)nn(-c2ccccc2)c1N1CCC(C(=O)Nc2cccc(C(F)(F)F)c2)CC1`, under setting [1], the AC50 was 39.8 µM [falling, single point].
The same measure, in the same setting: then `CCCN(CCC)C(=O)C1CCCN(c2ncnc3c2nc2n3CCCCC2)C1` (configuration not stated), with 25.1 µM [falling, partial curve].
On the same count and under the same terms, then `CCc1nnc2c3ccccc3nc(N3CCN(c4cc(C)ccc4C)CC3)n12`, with 15.8 µM [falling, partial curve]; and `COc1ccc2[nH]c(=O)c(CN(Cc3cccnc3)C(=O)Nc3ccccc3)cc2c1`, with 15.8 µM [falling, partial curve].
Still for that read-out and setting: next, `Cc1ccc(S(=O)(=O)c2nnn3c2nc(N2CCC(C(N)=O)CC2)c2cc(Cl)ccc23)cc1C`: 2 µM [rising, partial curve, poor fit]; `CC(CCc1ccco1)NC(=O)Nc1cccc(F)c1` (configuration not stated): 31.6 µM [falling, single point]; `Cc1nc2c(c(C)nn2C(C)(C)C)c(C)c1CCC(=O)Nc1ccc(Br)cc1Br`: 10 µM [falling, partial curve].
Regarding `CCc1cc2ccccc2nc1SCC(=O)N1CCN(C(=O)c2ccco2)CC1`, under setting [1], the AC50 is 15.8 µM [falling, partial curve].
Regarding `Cc1c(C(=O)N(C)C)sc2c1c(=O)n(-c1ccc(Cl)c(Cl)c1)c(=O)n2CC(=O)Nc1ccc(Br)cc1F`, the AC50 under setting [1] is 0.0251 µM [rising, full curve, poor fit].
Same read-out and setting: next, `COc1ccc(-n2cc(-c3ccc4c(c3)OCO4)n(CC(=O)Nc3cccc(C)c3)c2=O)cc1`: 39.8 µM [falling, single point].
Same read-out and setting: then `CCCCC1CCC(CCCC(C)CCC(=O)O)CC1` (configuration not stated), with 25.1 µM [falling, single point]; and `O=C(CC1N=C2c3ccccc3N=C(SCC(=O)Nc3ccc(F)cc3)N2C1=O)NCc1ccc2c(c1)OCO2` (configuration not stated), with 12.6 µM [falling, partial curve, poor fit].
Same read-out and setting: next, `Cc1ccccc1Cn1c(SCc2ccc(C(=O)NCCc3ccccc3)cc2)nc2ccncc21`: 10 µM [falling, partial curve]; `CCN(CC)c1cc2c(cc1F)c(=O)c(S(=O)(=O)c1ccccc1)cn2C`: 31.6 µM [falling, single point]; `CCOc1ccc(NC(=O)CN2CCSc3ccc(S(=O)(=O)N4CCCC4)cc32)cc1`: 20 µM [falling, partial curve, poor fit].
As for `Cc1noc(Cn2c(=O)c3ccccc3n(CC(=O)Nc3ccc(C(C)C)cc3)c2=O)n1`, under setting [1], the AC50 was 39.8 µM [falling, single point].
For the molecule `Cc1cc(N)c2ccccc2[n+]1CCCCCCCCCCCCCC[n+]1c(C)cc(N)c2ccccc21`, the AC50 is, setting by setting: under setting [2], 31.6 µM [falling, partial curve]; under setting [3], 7.94 µM [falling, full curve, poor fit].
Regarding `CCOC(=O)c1c(NC(=O)CSc2nnc(-c3ccccc3C)n2C)sc(C(C)=O)c1C`, under setting [1], the AC50 was 10 µM [falling, partial curve].
Still for that read-out and setting: next, `O=C(NCCn1ccc2ccccc21)c1ccc(S(=O)(=O)N2CCOCC2)cc1`: 3.98 µM [rising, partial curve].
With `CCc1cccc(NS(=O)(=O)c2cc(-c3cnc(C)o3)ccc2OC)c1`, under setting [1], the AC50 is 39.8 µM [falling, single point].
In the case of `CCc1ccccc1NS(=O)(=O)c1cc(Br)cc2c1N(C(=O)C1CC1)CC2`, under setting [1], the AC50 is 10 µM [falling, partial curve].
Take `COc1ccccc1NC(=O)Cn1c(=O)n(CCc2ccccc2)c(=O)c2c3c(sc21)CN(C(C)=O)CC3`: the AC50 under setting [1] was 3.98 µM [falling, single point].
For the molecule `Cc1nnc(SCc2nc(-c3ccc(Cl)cc3)no2)n1-c1ccc(F)cc1`, the AC50 under setting [1] is 20 µM [falling, partial curve].
The same measure, in the same setting: then `O=C(c1ccccc1)n1nc(-c2ccco2)nc1NCc1cccs1`, with 1.58 µM [rising, partial curve]; and `Cc1ccc(Cn2cc(/C=C(/C#N)C(=O)Nc3cccc(Cl)c3)c3ccccc32)cc1`, with 3.16 µM [falling, partial curve].
The same measure, in the same setting: next, `O=c1cc(-c2ccccc2)nc2cc(-c3ccc(F)cc3)[nH]n12`: 31.6 µM [falling, partial curve]; `COc1cc2ccccc2cc1C(=O)Nc1cc(-c2nc3ccccc3o2)ccc1C`: 2 µM [falling, full curve].
Still for that read-out and setting: then `Cc1c(C(=O)OCC2CCCCC2)[nH]c2c1C(=O)CC(c1ccc(Cl)cc1)C2` (configuration not stated), with 3.98 µM [falling, partial curve].
For the molecule `CCn1c(=O)cc(OCC(=O)NCc2ccccc2Cl)c2ccccc21`, the AC50 under setting [1] was 0.794 µM [falling, partial curve, poor fit].
The same measure, in the same setting: next, `CCOC(=O)c1c(C)oc2c1c(C(c1cccnc1)N1CCN(C)CC1)c(O)c1ccccc12` (configuration not stated): 12.6 µM [falling, partial curve].
On to `COc1ccc(CNC(=O)COC(=O)c2n[nH]c3ccccc23)cc1OC`, for which the AC50 under setting [1] is 25.1 µM [falling, partial curve].
On to `Cc1ccccc1C(=O)Nc1nnc(S(=O)(=O)N(C)Cc2ccc(Cl)cc2)s1`, for which the AC50 under setting [1] is 12.6 µM [falling, partial curve].
As to `O=C(Cc1ccc(F)cc1)N1CCC(c2nc3c(nnn3Cc3ccc(F)cc3)c(=O)[nH]2)CC1`, the half-maximal activity concentration (AC50) under setting [1] was 15.8 µM [falling, partial curve].
On to `Cc1ccc(O)c(N)c1`, for which the AC50 was 31.6 µM [rising, partial curve] under setting [2] and 5.01 µM [falling, partial curve] under setting [3].
With `COc1ccc(CC(=O)N2CC(=O)Nc3ccc(Br)cc3C2c2ccc(F)cc2)cc1` (configuration not stated), the AC50 under setting [1] was 39.8 µM [falling, single point].
On the same count and under the same terms, then `CCCCNc1nc(Oc2ccc(OCCC)nn2)nc(N(C)C)n1`, with 10 µM [falling, partial curve, poor fit]; and `COc1ccc(OC)c(CCNC(=O)CN2C(=O)COc3ccc(S(=O)(=O)N4CCC(C)CC4)cc32)c1`, with 15.8 µM [falling, partial curve]; and `COc1ccc(CC(=O)Nc2c(C(=O)Nc3ccc(F)cc3)oc3ccccc23)cc1OC`, with 15.8 µM [rising, partial curve].
Take `COc1ccc(Cn2nnnc2CN2CCC(c3nc4ccccc4s3)CC2)cc1`: the AC50 under setting [1] was 25.1 µM [falling, partial curve].
In the case of `O=C(CCSCc1ccccc1F)N1CCN(c2ccc(Cl)cc2)CC1`, under setting [1], the AC50 was 39.8 µM [falling, single point].
Still for that read-out and setting: next, `COc1cc2c(C(=O)Nc3ccc(C)cc3Br)cn(C)c(=O)c2cc1OC`: 10 µM [falling, full curve]; `CCCN1CCN(CCNC(=O)Nc2cc(C)ccc2OC)CC1`: 10 µM [falling, partial curve].
For `COc1ccc(-n2c(/C=C/c3cccc4ccccc34)nc3ccccc3c2=O)cc1Cl`, the AC50 under setting [1] was 20 µM [falling, partial curve, poor fit].
For the molecule `FC(F)(F)c1cnc2c(c1)Nc1ccccc1S2`, under setting [1], the AC50 is 10 µM [falling, partial curve].
Still for that read-out and setting: then `CC(C)(C)c1ccc(C(=O)NC(Cc2c[nH]c3ccccc23)C(=O)OCC(=O)c2ccccc2)cc1` (configuration not stated), with 3.98 µM [falling, partial curve].
For the molecule `COc1ccc(Cn2c(=O)[nH]c3cc(C(=O)N4CCN(c5cccc(OC)c5)CC4)ccc3c2=O)cc1`, the AC50 under setting [1] is 0.0501 µM [falling, full curve, poor fit].
Still for that read-out and setting: next, `Cn1cc(C(=O)NCc2ccc(Cl)cc2)c(=O)c2cc(S(=O)(=O)N3CCCCCC3)ccc21`: 6.31 µM [falling, partial curve]; `CCC1CN(C(=O)N2CCC(C(=O)NCCC3=CCCCC3)CC2)c2cc(C)ccc2O1` (configuration not stated): 15.8 µM [falling, partial curve].
On to `C[C@@H]1C(=O)O[C@H]2[C@@H](O)[C@@]34[C@H]5C[C@H](C(C)(C)C)[C@@]36[C@H](OC(=O)[C@@H]6O)O[C@@]4(C(=O)O5)[C@@]12O`, for which, under setting [1], the AC50 was 0.316 µM [rising, single point].
For the molecule `CCn1cc2nc(SCc3ccc(C)cc3)n(CCc3ccccc3)c(=O)c2n1`, the AC50 under setting [1] is 31.6 µM [falling, partial curve].
`Cc1ccc(OCC(=O)Nc2ccc(Cl)c(-c3nc4ccccc4[nH]3)c2)cc1C`: the AC50 under setting [1] is 10 µM [falling, partial curve].
The same measure, in the same setting: next, `C(=N\n1cnnc1)/c1cccc(OCCOc2ccccc2)c1`: 12.6 µM [falling, partial curve].
On the same count and under the same terms, next, `COc1ccc(C)cc1NC(=O)C(=O)NCC1(c2ccccc2)CCCC1`: 39.8 µM [falling, single point]; `CC(C)(C)c1ccc(C2NC(=O)c3n[nH]c(-c4cccs4)c32)cc1` (configuration not stated): 31.6 µM [falling, single point]; `Cc1ccc(NC(=O)Cn2c(CCC(=O)O)ccc2-c2ccc(Cl)cc2)cc1`: 25.1 µM [falling, single point].
The same measure, in the same setting: then `Cc1ccc(Cn2cc(CCC(=O)NCc3ccccc3F)c3ccccc32)cc1`, with 0.158 µM [falling, partial curve]; and `O=C(Nc1ccccc1)N1CCN2C(=O)c3ccccc3C12c1ccccc1` (configuration not stated), with 20 µM [falling, partial curve]; and `Cn1c(=O)n(Cc2ccccc2)c(=O)c2c1nc1n2CCCN1Cc1ccccc1`, with 7.94 µM [falling, partial curve].
In the case of `Cc1cc(C)c2c(n1)SCCN2C(=O)Nc1ccc(C(=O)Nc2cc(Cl)ccc2C)cc1`, the AC50 under setting [1] is 12.6 µM [falling, partial curve, poor fit].
